PubChem BioAssay AID720505, Drosophila RNAi Screening Center – 2013

- Screen: 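Knock-downs that reduce calcium influx once internal stores are emptied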 (primary screen)
- Cell system: Drosophila S2R+ cells
- Reagent: long dsRNA against Drosophila genes
- Challenge: thapsigargin (2 µM) in calcium-free buffer to empty internal stores, then 2 mM calcium added back
- Measured: 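Stores emptied by 2 µM thapsigargin without calcium, then 2 mM calcium re-added; fluo-4 fluorescence followed by FLIPR in 384-well plates, per-well averaged endpoint, raw; two screen passes, some wells retested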
- Scale: calcium signal and retest calcium signal: higher = more calcium entry after store depletion
- Hit rule: 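Knock-downs counted as hits when calcium entry dropped relative to STIM1 positive and Rho1 negative controls present on each plate; roughly 1500 genes called, with reductions of differing size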
- Meaning of the calls: active = called as lowering calcium entry; inactive = not called
The screen tested about 20,000 reagents; below is a random part of those with a known target gene and a result. Over the whole deposit, about 2,100 (10%) were called active. 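Raw plate signals without normalisation; calls rest on control-based scores that were not deposited; replicate 2 separates called from uncalled poorly.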 The numbers tell different reagents against one gene apart. Names joined by + are all predicted targets of the reagent. Not stated in the record: the amount of reagent, the time to read-out.

target gene	dsRNA no.	calcium signal, replicate 1	calcium signal, replicate 2	retest calcium signal, replicate 1	retest calcium signal, replicate 2	activity call
CG4294	1	107	110			inactive
CG13325	1	137	116			inactive
key	1	66.3	175			active
CaMKI	1	122	131			inactive
CycD	1	56.4	106			active
OstDelta	1	168	129			inactive
Prat2	1	157	119			inactive
CG1792	1	79.1	141			inactive
Andorra	1	90.4	131			inactive
CG17648	1	182	147			inactive
Cyp28d1	1	106	233			inactive
Cyp28d1	2	128	87.8			inactive
pigs	1	202	130			inactive
pigs	2	170	84.5			inactive
GstD10	1	110	94.5			inactive
klg	1	231	200			inactive
CG5568	1	88.8	102	153	105	inactive
CG5568	2	88.2	83.2			inactive
CG6733	1	174	134			inactive
cer	1	140	172			inactive
CG9143	1	226	146			inactive
Gr23a	1	180	165			inactive
ArfGAP1	1	126	97.4			inactive
fat-spondin	1	151	78			inactive
fs(2)ltoPP43	1	123	98			inactive
CG7903	1	159	152			inactive
side-II	1	173	108			inactive
side-II	2	166	88.4			inactive
side-II	3	114	93			inactive
side-II	4	116	125	104	130	inactive
side-II	5	91.9	155	82.7	75.2	inactive
side-II	6	69.3	174			inactive
Polr1A	1	127	115			inactive
CG17658	1	141	195			inactive
Tsp33B	1	205	170			inactive
CG10628	1	68.6	217			inactive
CG15539	1	140	139			inactive
Acp53Ea	1	144	133			inactive
Rab3-GAP	1	109	82.8			inactive
CG12540	1	113	117			inactive
Spred	1	122	172			inactive
CG3040	1	141	179			inactive
unc-13	1	114	166			inactive
BomS6	1	149	110			inactive
nom	1	122	154			inactive
qkr58E-3	1	240	89.5			inactive
CG9132	1	119	120			inactive
CG11878	1	215	138			inactive
Polr2J	1	119	99			inactive
Cp110	1	177	120			inactive
Cp110	2	136	109			inactive
ZnT86D	1	124	106			inactive
CG30284	1	89.6	217			inactive
Mgtor	1	172	136			inactive
CG6472	1	136	118			inactive
Hml	1	125	109			inactive
CG31827 + CG18478	1	110	95.3			inactive
tos	1	78.9	116			inactive
Nplp4	1	128	105			inactive
ND2 (retired record)	1	68.2	210	105	94	active
CG7542	1	112	280			inactive
CG31717	1	150	89.3			inactive
Hat1	1	111	161			inactive
SCCRO	1	55.8	64.2			active
cactin	1	74.3	123			active
CPT2	1	152	99.4			inactive
Pect	1	78.7	106			inactive
Pect	2	89.2	121			inactive
SdhAL	1	59.2	117			active
Lrch	1	74.7	87.4			inactive
Hsdl2	1	113	126			inactive
CCT2	1	182	123			inactive
p53	1	164	251			inactive
TppII	1	138	95.3			inactive
Rpt6	1	225	157			inactive
CG11902	1	255	106	132	111	inactive
nan	1	80.6	157			inactive
CG10859	1	78.7	96.6			inactive
CG9500	1	69.9	184			active
CG42523	1	86.8	165			inactive
odd	1	182	78.4			inactive
odd	2	104	131			inactive
CG32806	1	158	78.6			inactive
